The whole screen tested about 360,000 compounds, of which about 780 (0.22%) were called active. Inconclusive means that the source gave no clear call. Such entries were picked first, then a sample of the others. No stated cut-off is given here; in the data, active means inhibition above about 35% (passing the limit was not always enough); inconclusive means no clear call, values can overlap the other calls.
System: Botulinum neurotoxin type F light chain protease (Clostridium botulinum)
Test: BoNT/F light chain protease inhibitors, primary screen, biochemical, flow cytometry, MLPCN library (AID 588497); further: plate controls were buffer without enzyme for full effect and enzyme alone for no effect
Details: Multiplex microsphere protease cleavage assay, at 10 µM, active compounds read high

SMILES	inhibition
CCN(CC(=O)Nc1ccc(OC)cc1)C(=O)c1cc2c(s1)CCCCC2	inconclusive: 3.9%
CCOc1ccc(N/C(=N/c2nc(C)cc(C)n2)NC(=O)CC)cc1	inconclusive: -0.4%
Clc1ccc(CNc2ccc(CNc3ncn[nH]3)cc2)cc1	inactive: -4.7%
CC1=C(C(=O)N2CCOCC2)C(c2ccccc2F)C2=C(CC(C)(C)CC2=O)N1 (stereo not given)	inactive: 2.1%
CC(=O)Nc1ccc(NC(=O)C/C(C)=N/NC(=O)C(=O)Nc2ccc(C)c(Cl)c2)cc1	inconclusive: -22.8%
Cc1cn([C@H]2C[C@H](O)[C@@H](CNCc3cccn3-c3ccncc3)O2)c(=O)[nH]c1=O	inactive: -1.2%
CC(C)NC(=O)[C@H]1N2C(=O)c3ccccc3C2SC1(C)C (stereo not given in full)	active: 35.6%
C=C(C)COc1cc2oc(=O)c(CC(=O)N3C[C@H]4C[C@@H](C3)c3cccc(=O)n3C4)c(C)c2cc1Cl	inactive: -9.4%
N#CC12CNCC1CN=N2 (stereo not given)	inconclusive: -36.1%
CCOC(=O)c1ccccc1CN1C(=O)c2ccccc2S1(=O)=O	inconclusive: -22.3%
COc1ccc(C2CC(c3ccc(OC)cc3OC(C)=O)=NN2C(=O)c2ccccc2)cc1 (stereo not given)	inconclusive: -55.9%
CCOC(=O)c1sc2nc3n(c(=O)c2c1C)CCCCC3	inconclusive: -21.7%
Cc1cc(=O)oc2cc(OCC(O)Cn3ccnc3)ccc12 (stereo not given)	inactive: -28.5%
CN(CCc1ccccn1)C(=O)c1cccnc1Oc1ccccc1	inconclusive: 44.3%
Cc1nc2ccc(NC(=O)CS(=O)(=O)c3ccccc3)cc2s1	inconclusive: -6.4%
CCOC(=O)C(CCCCC(NC(C)=O)(C(=O)OCC)C(=O)OCC)(NC(C)=O)C(=O)OCC	inconclusive: 66.6%
Cn1c(SCCCC(=O)c2ccccc2)nnc1-c1ccncc1	inactive: 2.2%
CC(=O)c1cccc(-c2cnc3c(NC=O)cc(-c4ccccc4Oc4ccccc4)cn23)c1	inactive: -5.9%
COc1ccc(COc2cccnc2N)cc1	inconclusive: 156%
COc1cccc(CNc2ccc(N3CCC(C)CC3)cc2)c1OC	inactive: -5.2%
c1coc(CNc2ncnc3[nH]ncc23)c1	inconclusive: -31.2%
COc1ccccc1OCc1ccc(C(=O)Nc2cc(OC)c(OC)c(OC)c2)o1	inconclusive: -10.2%
Cc1ccc(S(=O)(=O)N2CCC(C(=O)N3CCC(C(=O)NCC4CCCO4)CC3)CC2)cc1 (stereo not given)	inactive: 0.1%
CC(C)CN(Cc1cc2ccccc2[nH]c1=O)C(=O)c1cccnc1	inactive: -8.9%
Cc1cc2nc(C3CCCCC3)c(Cc3ccccc3)n2c(C)c1Br	inactive: -7%

Fetched one by one from above, 2 records:
SMILES	inhibition
Cc1cn([C@H]2C[C@H](O)[C@@H](CNCc3cccn3-c3ccncc3)O2)c(=O)[nH]c1=O	inactive: -1.2%
Clc1ccc(CNc2ccc(CNc3ncn[nH]3)cc2)cc1	inactive: -4.7%

— PubChem BioAssay AID588497 (NMMLSC, 2011)
